Values from PubChem BioAssay AID504764 (Drosophila RNAi Screening Center, 2011).

Test: 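Genes whose knock-down alters Notch-dependent transcription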 (primary screen)
Cell system: Drosophila Kc167 cells
Reagent: long dsRNA against Drosophila genes
Duration: about 5 days (4 days dsRNA, then 24 h after transfection)
Challenge: transfection of constitutively active membrane-tethered Notch lacking the extracellular domain, read 24 h later
Measurement: 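Light from a Notch-responsive E(spl)m3 luciferase reporter under active Notch, with control-promoter and no-Notch reporter wells to normalise; raw counts from paired wells a and b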
Scale: induced reporter light, run 1, well a and induced reporter light, run 1, well b: higher = more light from the Notch target reporter with active Notch; control promoter light, run 1, well a and control promoter light, run 1, well b: higher = more light from the viral control promoter (cell number, transfection, viability); uninduced reporter light, run 1, well a: higher = more light from the Notch target reporter without active Notch
Hit rule: 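Wells with low control signal or poorly matching duplicates excluded; duplicates averaged; per source plate, z beyond ±2 for induced/control log2 ratio or beyond ±1.8 for induced/uninduced marks a hit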
Calls: active = modifier hit (raised or lowered Notch signal); inactive = not a hit
The screen tested about 22,000 reagents; below is a random part of those with a known target gene and a result. Over the whole deposit, 403 (1.9%) were called active. 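Unnormalised raw counts per well; ratio z-scores behind the hit calls and whether each hit raises or lowers signal are not deposited.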 The numbers tell different reagents against one gene apart. Not given: the amount of reagent.

Against Lsm11 (GeneID 36013), the values are induced reporter light, run 1, well a = 2.13e5; induced reporter light, run 1, well b = 1.65e5; control promoter light, run 1, well a = 2.03e5; control promoter light, run 1, well b = 1.95e5; uninduced reporter light, run 1, well a = 16890; inactive. With knock-down of mrn (GeneID 39688), the record shows induced reporter light, run 1, well a = 1.24e5; induced reporter light, run 1, well b = 1.29e5; control promoter light, run 1, well a = 82540; control promoter light, run 1, well b = 1.04e5; uninduced reporter light, run 1, well a = 11510; inactive. Dbx (GeneID 38254) #1 showed induced reporter light, run 1, well a = 97515; induced reporter light, run 1, well b = 76595; control promoter light, run 1, well a = 1.05e5; control promoter light, run 1, well b = 91365; uninduced reporter light, run 1, well a = 6045; inactive. For Dbx (GeneID 38254) #2 the deposit lists induced reporter light, run 1, well a = 1.26e5; induced reporter light, run 1, well b = 1.03e5; control promoter light, run 1, well a = 1.51e5; control promoter light, run 1, well b = 1.41e5; uninduced reporter light, run 1, well a = 6200; inactive. Depletion of Dbx (GeneID 38254) #3 resulted in: induced reporter light, run 1, well a = 86885; induced reporter light, run 1, well b = 1.26e5; control promoter light, run 1, well a = 1.80e5; control promoter light, run 1, well b = 1.60e5; uninduced reporter light, run 1, well a = 9225; inactive.

Entries above whose gene name begins with D or d (3):
Dbx (GeneID 38254) #1 | induced reporter light, run 1, well a = 97515; induced reporter light, run 1, well b = 76595; control promoter light, run 1, well a = 1.05e5; control promoter light, run 1, well b = 91365; uninduced reporter light, run 1, well a = 6045; call = inactive
Dbx (GeneID 38254) #2 | induced reporter light, run 1, well a = 1.26e5; induced reporter light, run 1, well b = 1.03e5; control promoter light, run 1, well a = 1.51e5; control promoter light, run 1, well b = 1.41e5; uninduced reporter light, run 1, well a = 6200; call = inactive
Dbx (GeneID 38254) #3 | induced reporter light, run 1, well a = 86885; induced reporter light, run 1, well b = 1.26e5; control promoter light, run 1, well a = 1.80e5; control promoter light, run 1, well b = 1.60e5; uninduced reporter light, run 1, well a = 9225; call = inactive

Next entries follow:
For RhoL (GeneID 41136), the entry reads induced reporter light, run 1, well a = 1.43e5; induced reporter light, run 1, well b = 1.77e5; control promoter light, run 1, well a = 1.04e5; control promoter light, run 1, well b = 1.03e5; uninduced reporter light, run 1, well a = 10545; inactive. Silencing of CG30394 (GeneID 37437) #1 gave: induced reporter light, run 1, well a = 50405; induced reporter light, run 1, well b = 39910; control promoter light, run 1, well a = 40625; control promoter light, run 1, well b = 33695; uninduced reporter light, run 1, well a = 3210; inactive. Depletion of CG30394 (GeneID 37437) #2 resulted in: induced reporter light, run 1, well a = 64535; induced reporter light, run 1, well b = 40330; control promoter light, run 1, well a = 47320; control promoter light, run 1, well b = 35980; uninduced reporter light, run 1, well a = 3135; inactive. BG642163 (GeneID 4379888) #1 showed induced reporter light, run 1, well a = 1.68e5; induced reporter light, run 1, well b = 1.45e5; control promoter light, run 1, well a = 1.80e5; control promoter light, run 1, well b = 1.64e5; uninduced reporter light, run 1, well a = 10220; inactive. Depletion of BG642163 (GeneID 4379888) #2 resulted in: induced reporter light, run 1, well a = 1.90e5; induced reporter light, run 1, well b = 1.56e5; control promoter light, run 1, well a = 1.87e5; control promoter light, run 1, well b = 1.21e5; uninduced reporter light, run 1, well a = 10715; inactive. With knock-down of CG31326 (GeneID 41728), the record shows induced reporter light, run 1, well a = 3.34e5; induced reporter light, run 1, well b = 3.31e5; control promoter light, run 1, well a = 2.41e5; control promoter light, run 1, well b = 2.54e5; uninduced reporter light, run 1, well a = 20375; inactive.

Depletion of CG15337 (GeneID 31748) came out at: induced reporter light, run 1, well a = 1.48e5; induced reporter light, run 1, well b = 1.37e5; control promoter light, run 1, well a = 3.11e5; control promoter light, run 1, well b = 3.52e5; uninduced reporter light, run 1, well a = 12075; inactive.
